Source: PubChem BioAssay AID504744 (Drosophila RNAi Screening Center, 2011)

- Screen: 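Identify dsRNAs that increase or decrease phospho-dAkt after insulin treatment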 (primary screen)
- Cells: Drosophila Kc167 cells
- Reagents: long dsRNA against Drosophila genes, 250 ng dsRNA per well of a 384-well plate
- Duration: 3 days of knock-down, then overnight serum-free starvation before stimulation
- Treatment: bovine insulin at 387 nM for 10 minutes after 12 h without serum
- Measured: 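In-cell antibody fluorescence for phospho-dAkt in each well over DNA-dye signal, with log2 residuals expressed as z-scores adjusted for cell count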
- Hit rule: 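Hit in the insulin screen when the two-replicate mean z-score is more extreme than plus or minus 2.5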
In all, the deposit lists about 23,000 reagents; shown is a random part of those that have a named target and a result. Over the whole deposit, 98 (0.43%) were called active. 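Only hit calls are given; the phospho-dAkt signals, z-scores and hit direction were not deposited.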 Names joined by + are all predicted targets of the reagent. Reagent sequences are not shown.

Target gene | dsRNA | outcome
Akh | DRSC08138 | inactive
RNaseZ | DRSC06845 | inactive
CG4116 | DRSC18348 | inactive
CG15237 | DRSC04971 | inactive
CG15549 | DRSC15087 | inactive
CG34283 | DRSC13313 | inactive
Apc2 | DRSC14115 | inactive
CG32625 | DRSC18994 | inactive
Eig71Ed | DRSC11151 | inactive
CG34316 | DRSC13080 | inactive
CG15414 | DRSC00429 | inactive
CG15414 | DRSC22353 | inactive
Fpgs2 | DRSC00600 | inactive
Ugt316A1 | DRSC10376 | inactive
Cluap1 | DRSC20637 | inactive
pch2 | DRSC14368 | inactive
Vajk4 | DRSC06589 | inactive
Vajk4 | DRSC07003 | inactive
CG44001 + CG33995 | DRSC00853 | inactive
CG44001 + CG33995 | DRSC02898 | inactive
BEAF-32 + CG42254 (retired record) | DRSC05503 | inactive
CG13606 | DRSC14609 | inactive
Cpr72Ec | DRSC10449 | inactive
CG12853 | DRSC06193 | inactive
Prp5 | DRSC19975 | inactive
PpD6 | DRSC00774 | inactive
Spn55B | DRSC07694 | inactive
Spn55B | DRSC21862 | inactive

Records listed so far whose target name begins with S or s (2):
Target gene | dsRNA | outcome
Spn55B | DRSC07694 | inactive
Spn55B | DRSC21862 | inactive

The listing continues:
Target gene | dsRNA | outcome
Rrp5 | DRSC15862 | inactive
RpS23 | DRSC07169 | inactive
CG34423 + Mthfs | DRSC04088 | inactive
vap | DRSC20275 | inactive
APC7 | DRSC17937 | inactive
CG8252 | DRSC07126 | inactive
su(w[a]) | DRSC18840 | inactive
Trm7-32 | DRSC15741 | inactive
XRCC1 | DRSC18729 | inactive
Pex2 | DRSC10770 | inactive
salr | DRSC03607 | inactive
CG15387 | DRSC00401 | inactive
CG9570 | DRSC20687 | inactive
CG8746 | DRSC07257 | inactive
Tango5 | DRSC18023 | inactive
CG13678 | DRSC10036 | inactive
mld | DRSC13681 | inactive
mld | DRSC14622 | inactive
mld | DRSC21771 | inactive
ldbr | DRSC10933 | inactive
qm | DRSC11386 | inactive
CG32376 | DRSC22754 | inactive
alphaTry | DRSC07577 | inactive
ScpX | DRSC03430 | inactive
CG5767 | DRSC06953 | inactive
CG13071 | DRSC09954 | inactive
CG5262 | DRSC11773 | inactive
CG1231 | DRSC08267 | inactive
CG34183 | DRSC01099 | inactive
CG34265 | DRSC08030 | inactive
ppk17 | DRSC02252 | inactive
CG30383 | DRSC05062 | inactive
Sfp26Ad | DRSC00904 | inactive
CG3803 | DRSC04420 | inactive
mRpS22 | DRSC14488 | inactive
CG14995 | DRSC08452 | inactive
